PMC4265741
No constants are given. Whether binding was seen depends on the method and setting. Binding seen in cells or lysates may run through a third protein. Some results given as binding are weak or reduced against the parent protein; the word gives no strength.

By UniProt entry, the sequences of proteins in these tests, tags left out. Where a name states a change or a piece, a line headed by the entry shows the natural chain unless it says otherwise.
UniProt Q00944: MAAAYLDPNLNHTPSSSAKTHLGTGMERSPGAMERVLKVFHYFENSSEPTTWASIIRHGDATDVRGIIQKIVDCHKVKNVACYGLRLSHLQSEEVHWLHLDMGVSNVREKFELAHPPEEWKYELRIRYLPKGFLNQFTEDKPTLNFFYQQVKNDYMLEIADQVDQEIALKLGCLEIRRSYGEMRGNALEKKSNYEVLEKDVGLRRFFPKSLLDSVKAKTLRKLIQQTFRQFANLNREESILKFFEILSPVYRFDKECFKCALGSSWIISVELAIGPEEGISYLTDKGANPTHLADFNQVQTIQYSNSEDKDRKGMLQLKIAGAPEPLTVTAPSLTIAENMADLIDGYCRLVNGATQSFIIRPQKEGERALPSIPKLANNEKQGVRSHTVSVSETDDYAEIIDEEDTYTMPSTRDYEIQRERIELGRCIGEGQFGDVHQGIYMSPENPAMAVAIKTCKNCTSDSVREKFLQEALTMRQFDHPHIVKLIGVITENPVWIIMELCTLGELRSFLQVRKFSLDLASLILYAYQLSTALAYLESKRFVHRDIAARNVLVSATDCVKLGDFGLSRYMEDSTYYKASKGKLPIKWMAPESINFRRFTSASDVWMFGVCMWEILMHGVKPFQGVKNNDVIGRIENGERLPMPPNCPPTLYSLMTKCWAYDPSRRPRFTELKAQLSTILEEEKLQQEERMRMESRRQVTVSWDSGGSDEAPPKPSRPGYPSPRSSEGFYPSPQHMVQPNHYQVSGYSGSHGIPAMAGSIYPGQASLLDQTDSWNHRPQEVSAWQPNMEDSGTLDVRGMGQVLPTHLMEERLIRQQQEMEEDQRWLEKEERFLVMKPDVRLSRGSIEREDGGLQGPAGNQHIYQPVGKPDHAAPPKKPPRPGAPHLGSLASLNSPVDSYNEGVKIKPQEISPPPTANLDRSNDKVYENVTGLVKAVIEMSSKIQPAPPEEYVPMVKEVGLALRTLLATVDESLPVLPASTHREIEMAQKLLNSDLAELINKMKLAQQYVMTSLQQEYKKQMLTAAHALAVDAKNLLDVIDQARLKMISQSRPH

What was measured:
[1] = molecular target: FAK WT (wild-type focal adhesion kinase re-expressed in FAK-/- SCC cells) (UniProt Q00944); experiment: co-IP; 1 mg SCC cell lysate (FAK WT, FAK K1001A/K1003A or FAK-/-; RIPA or NP40 buffer) with 2 ug antibody or 10 ul agarose-conjugated antibody at 4 C overnight; beads washed three times in lysis buffer and once in 0.6 M LiCl; western blot; for the LC3B IP FAK-/- cells with Eps8 or non-targeting shRNA
FAK K1001A/K1003A = FAK K1001A/K1003A (UniProt Q00944); experiment: as above

- binding [1]: binds
- binding (FAK K1001A/K1003A): binds
B1: p130Cas (protein, UniProt Q61140 1-874)
chain: MTVPNVLAKALYDNVAESPDELSFRKGDIMTVLERDTQGLDGWWLCSLHGRQGIVPGNRLKILVGMYDKKPVGPGPGPPATPPQPQPSLPQGVHAPVPPASQYSPMLPTAYQPQSDNVYLVPTPSKTQQGLYQAPGPNPQFQSPPAKQTSTFSKQTPHHSFPSPATDLYQVPPGPGSPAQDIYQVPPSAGIGHDIYQVPPSLDTRGWEGTKPPAKVVVPTRVGQGYVYEAAQTEQDEYDTPRHLLAPGPQDIYDVPPVRGLLPNQYGQEVYDTPPMAVKGPNGRDPLLDVYDVPPSVEKGLLSSSHHSVYDVPPSVSKDVPDGPLLREETYDVPPAFAKPKPFDPTRHPLILAAPPPDSPAAEDVYDVPPPAPDLYDVPPGLRRPGPGTLYDVPRERVLPPEVADGSVVDDGVYAVPPPAEREAPTDGKRLSASSTGSTRSSQSASSLEVVVPGREPLELEVAVESLARLQQGVSTTVAHLLDLVGSASGPGGWRGTSEPQEPPAQDLKAAVAAVHGAVHELLEFARGAVSNATHTSDRTLHAKLSRQLQKMEDVYQTLVVHGQVLDSGRGSPGFTPEDLDRLVACSRAVPEDAKQLASFLHGNASLLFRRTKAPGPGPEGSSSLHPNPTDKASSIQSRPLPSPPKFTSQDSPDGQYENSEGGWMEDYDYVHLQGKEEFEKTQKELLERGNIMRQGKGQLELQQLKQFERLEQEVSRPIDHDLANWTPAQPLVPGRTGGLGPSDRQLLLFYLEQCEANLTTLTDAVDAFFTAVATNQPPKIFVAHSKFVILSAHKLVFIGDTLSRQAKAADVRSQVTHYSNLLCDLLRGIVATTKAAALQYPSPSAAQDMVDRVKELGHSTQQFRRVLGQLAAA
